These are yes or no findings as the source states them, for the method shown. Some binding calls cover weakened binding; strength is not graded here. Tags and fused reporters may be left off the sequences shown. Blank lines part the entries; values can stand above or below the molecule they belong to.
Key:
Assay in all cases: two-hybrid
[1] = target: T1, Rpn8 (Saccharomyces cerevisiae proteasome lid subunit) (S. cerevisiae) (UniProt Q08723)
T1 sequence: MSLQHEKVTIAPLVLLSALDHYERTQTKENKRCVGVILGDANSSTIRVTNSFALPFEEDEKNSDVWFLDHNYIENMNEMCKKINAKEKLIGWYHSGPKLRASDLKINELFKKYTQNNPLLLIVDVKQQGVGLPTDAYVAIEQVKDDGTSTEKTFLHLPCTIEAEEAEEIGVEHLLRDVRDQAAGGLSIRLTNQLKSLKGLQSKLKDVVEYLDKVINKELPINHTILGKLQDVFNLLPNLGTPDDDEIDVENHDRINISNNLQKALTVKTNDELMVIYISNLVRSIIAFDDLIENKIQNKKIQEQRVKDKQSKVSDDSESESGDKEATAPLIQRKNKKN

The chains behind the UniProt entries cited, without tags or fusion partners.
UniProt P43588: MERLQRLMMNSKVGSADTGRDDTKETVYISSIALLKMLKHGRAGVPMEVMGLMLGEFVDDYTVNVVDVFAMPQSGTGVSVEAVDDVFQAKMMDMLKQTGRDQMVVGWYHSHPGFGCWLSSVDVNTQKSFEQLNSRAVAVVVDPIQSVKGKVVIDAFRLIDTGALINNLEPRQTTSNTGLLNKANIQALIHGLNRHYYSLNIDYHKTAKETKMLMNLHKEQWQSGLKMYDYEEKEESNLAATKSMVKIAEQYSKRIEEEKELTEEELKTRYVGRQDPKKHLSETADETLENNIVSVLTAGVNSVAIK

[2] = target: T2, Rpn7 (Saccharomyces cerevisiae proteasome lid subunit) (S. cerevisiae), Q06103; conditions: remark: other sources report otherwise
T2 chain: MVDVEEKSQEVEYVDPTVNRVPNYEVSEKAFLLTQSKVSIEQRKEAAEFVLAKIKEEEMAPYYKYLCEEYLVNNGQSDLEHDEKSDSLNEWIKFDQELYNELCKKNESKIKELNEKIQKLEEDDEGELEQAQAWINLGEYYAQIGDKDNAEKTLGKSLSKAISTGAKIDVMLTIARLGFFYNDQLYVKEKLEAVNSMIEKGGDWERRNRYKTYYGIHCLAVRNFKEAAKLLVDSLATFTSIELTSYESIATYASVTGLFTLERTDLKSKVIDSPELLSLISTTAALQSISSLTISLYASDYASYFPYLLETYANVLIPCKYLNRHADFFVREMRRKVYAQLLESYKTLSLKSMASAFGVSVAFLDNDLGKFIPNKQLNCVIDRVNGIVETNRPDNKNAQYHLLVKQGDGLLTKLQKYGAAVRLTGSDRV

[3] = target: T3, Rpn6 (Saccharomyces cerevisiae proteasome lid subunit) (S. cerevisiae), Q12377; conditions: remark: other sources report otherwise
T3 chain: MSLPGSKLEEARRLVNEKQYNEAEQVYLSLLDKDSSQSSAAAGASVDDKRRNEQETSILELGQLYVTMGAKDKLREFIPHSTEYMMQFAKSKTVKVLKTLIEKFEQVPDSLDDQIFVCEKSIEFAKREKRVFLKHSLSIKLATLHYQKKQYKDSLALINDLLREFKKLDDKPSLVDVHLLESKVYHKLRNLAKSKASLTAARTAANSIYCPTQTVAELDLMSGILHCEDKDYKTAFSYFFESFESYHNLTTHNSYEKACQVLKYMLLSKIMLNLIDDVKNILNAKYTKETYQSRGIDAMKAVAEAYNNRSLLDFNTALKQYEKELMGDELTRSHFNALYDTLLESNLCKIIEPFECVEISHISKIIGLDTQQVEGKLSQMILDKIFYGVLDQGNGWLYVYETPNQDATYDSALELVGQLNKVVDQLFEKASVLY

[4] = target: T4, Rpn8 (Saccharomyces cerevisiae proteasome lid subunit) (S. cerevisiae), Q08723; conditions: remark: other sources report otherwise
T4 chain: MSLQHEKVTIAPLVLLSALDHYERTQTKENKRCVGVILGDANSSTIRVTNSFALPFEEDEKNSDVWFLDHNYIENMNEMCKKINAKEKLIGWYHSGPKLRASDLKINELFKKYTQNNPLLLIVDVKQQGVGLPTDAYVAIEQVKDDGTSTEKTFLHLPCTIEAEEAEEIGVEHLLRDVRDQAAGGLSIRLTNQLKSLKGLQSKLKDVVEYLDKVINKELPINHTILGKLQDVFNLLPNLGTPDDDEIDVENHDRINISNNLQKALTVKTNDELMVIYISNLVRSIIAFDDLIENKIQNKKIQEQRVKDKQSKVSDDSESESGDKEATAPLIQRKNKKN

binding [1]: binds
Molecule: Rpn11 (Saccharomyces cerevisiae proteasome lid subunit) (from UniProt P43588 1-306)

binding [2]: no binding
B1: Rpn8 (Saccharomyces cerevisiae proteasome lid subunit), Q08723 1-338 (protein)
chain: MSLQHEKVTIAPLVLLSALDHYERTQTKENKRCVGVILGDANSSTIRVTNSFALPFEEDEKNSDVWFLDHNYIENMNEMCKKINAKEKLIGWYHSGPKLRASDLKINELFKKYTQNNPLLLIVDVKQQGVGLPTDAYVAIEQVKDDGTSTEKTFLHLPCTIEAEEAEEIGVEHLLRDVRDQAAGGLSIRLTNQLKSLKGLQSKLKDVVEYLDKVINKELPINHTILGKLQDVFNLLPNLGTPDDDEIDVENHDRINISNNLQKALTVKTNDELMVIYISNLVRSIIAFDDLIENKIQNKKIQEQRVKDKQSKVSDDSESESGDKEATAPLIQRKNKKN

Further lines, the molecule ahead of its results:

B2: Rpn7 (Saccharomyces cerevisiae proteasome lid subunit), Q06103 1-429 (protein)
chain: MVDVEEKSQEVEYVDPTVNRVPNYEVSEKAFLLTQSKVSIEQRKEAAEFVLAKIKEEEMAPYYKYLCEEYLVNNGQSDLEHDEKSDSLNEWIKFDQELYNELCKKNESKIKELNEKIQKLEEDDEGELEQAQAWINLGEYYAQIGDKDNAEKTLGKSLSKAISTGAKIDVMLTIARLGFFYNDQLYVKEKLEAVNSMIEKGGDWERRNRYKTYYGIHCLAVRNFKEAAKLLVDSLATFTSIELTSYESIATYASVTGLFTLERTDLKSKVIDSPELLSLISTTAALQSISSLTISLYASDYASYFPYLLETYANVLIPCKYLNRHADFFVREMRRKVYAQLLESYKTLSLKSMASAFGVSVAFLDNDLGKFIPNKQLNCVIDRVNGIVETNRPDNKNAQYHLLVKQGDGLLTKLQKYGAAVRLTGSDRV
binding [3]: no binding

B3: Rpn3 (Saccharomyces cerevisiae proteasome lid subunit), P40016 1-523 (protein)
chain: MASTAVMMDVDSSGVNDLHHSEKKYAEEDQVQELLKVLNEISKTTLTLDPRYIWRSLKDLSSLRNQELLNAETLCFTVNVLYPDSSSFKKNLLKFITSNHKSSVPGSAELRNSYPASFYSVNTEKKTIEVTAEINCFMHLLVQLFLWDSKELEQLVEFNRKVVIPNLLCYYNLRSLNLINAKLWFYIYLSHETLARSSEEINSDNQNIILRSTMMKFLKIASLKHDNETKAMLINLILRDFLNNGEVDSASDFISKLEYPHTDVSSSLEARYFFYLSKINAIQLDYSTANEYIIAAIRKAPHNSKSLGFLQQSNKLHCCIQLLMGDIPELSFFHQSNMQKSLLPYYHLTKAVKLGDLKKFTSTITKYKQLLLKDDTYQLCVRLRSNVIKTGIRIISLTYKKISLRDICLKLNLDSEQTVEYMVSRAIRDGVIEAKINHEDGFIETTELLNIYDSEDPQQVFDERIKFANQLHDEYLVSMRYPEDKKTQQNEKSENGENDDDTLDGDLMDDMSDISDLDDLGFL
binding [4]: no binding

Reference: article doi:10.1101/2024.09.18.613619 (bioRxiv, 2024)
